Consider one substance from paper doi:10.1101/481507.

Amino acid sequences for entries named in this document (tags omitted). A change or cut given only in a name is not applied to a line headed by its entry.
UniProt P29352: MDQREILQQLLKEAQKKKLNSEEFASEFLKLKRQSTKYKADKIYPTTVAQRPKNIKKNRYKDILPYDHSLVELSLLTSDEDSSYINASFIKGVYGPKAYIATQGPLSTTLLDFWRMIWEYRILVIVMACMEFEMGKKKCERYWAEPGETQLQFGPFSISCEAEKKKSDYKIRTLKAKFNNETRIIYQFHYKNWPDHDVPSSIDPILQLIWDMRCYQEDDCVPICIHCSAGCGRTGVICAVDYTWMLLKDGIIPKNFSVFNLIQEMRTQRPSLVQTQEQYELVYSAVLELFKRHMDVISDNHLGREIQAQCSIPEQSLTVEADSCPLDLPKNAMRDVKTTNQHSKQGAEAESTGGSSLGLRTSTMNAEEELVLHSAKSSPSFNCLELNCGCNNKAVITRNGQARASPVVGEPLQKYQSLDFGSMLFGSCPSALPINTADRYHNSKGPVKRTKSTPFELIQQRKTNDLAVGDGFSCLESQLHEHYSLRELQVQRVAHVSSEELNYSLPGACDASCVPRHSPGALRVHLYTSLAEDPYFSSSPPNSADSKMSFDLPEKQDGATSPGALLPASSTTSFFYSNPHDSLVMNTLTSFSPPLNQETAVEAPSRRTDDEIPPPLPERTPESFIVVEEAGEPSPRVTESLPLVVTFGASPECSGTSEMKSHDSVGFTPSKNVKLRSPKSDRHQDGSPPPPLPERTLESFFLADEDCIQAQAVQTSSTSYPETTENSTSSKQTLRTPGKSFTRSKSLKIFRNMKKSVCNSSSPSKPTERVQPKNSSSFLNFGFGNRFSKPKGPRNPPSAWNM
UniProt Q15691: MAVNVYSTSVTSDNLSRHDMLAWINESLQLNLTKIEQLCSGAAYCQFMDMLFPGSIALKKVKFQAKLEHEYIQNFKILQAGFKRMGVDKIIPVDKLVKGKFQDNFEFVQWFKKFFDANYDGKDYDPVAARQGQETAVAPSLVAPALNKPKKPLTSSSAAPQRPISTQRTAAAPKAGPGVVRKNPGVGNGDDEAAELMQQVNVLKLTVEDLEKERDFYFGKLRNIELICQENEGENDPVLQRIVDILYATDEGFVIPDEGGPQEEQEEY

No constants are given. Whether binding was seen depends on the method and setting. Binding seen in cells or lysates may run through a third protein.

For the assay, the target named is PTPN22-Flag ΔP1 (UniProt P29352). In words: co-IP.

Take “endogenous EB1 (human cells) (from UniProt Q15691 1-268)”: the binding entry is “no binding”.
